Data on 38 targets can be found in the supplement of paper PMC6411743.

Protein sequences, listed by entry. Tags and fused reporters are not part of them. Lines headed by an entry give the natural chain unless they say otherwise; changes in a name come on top.
UniProt Q9NW15: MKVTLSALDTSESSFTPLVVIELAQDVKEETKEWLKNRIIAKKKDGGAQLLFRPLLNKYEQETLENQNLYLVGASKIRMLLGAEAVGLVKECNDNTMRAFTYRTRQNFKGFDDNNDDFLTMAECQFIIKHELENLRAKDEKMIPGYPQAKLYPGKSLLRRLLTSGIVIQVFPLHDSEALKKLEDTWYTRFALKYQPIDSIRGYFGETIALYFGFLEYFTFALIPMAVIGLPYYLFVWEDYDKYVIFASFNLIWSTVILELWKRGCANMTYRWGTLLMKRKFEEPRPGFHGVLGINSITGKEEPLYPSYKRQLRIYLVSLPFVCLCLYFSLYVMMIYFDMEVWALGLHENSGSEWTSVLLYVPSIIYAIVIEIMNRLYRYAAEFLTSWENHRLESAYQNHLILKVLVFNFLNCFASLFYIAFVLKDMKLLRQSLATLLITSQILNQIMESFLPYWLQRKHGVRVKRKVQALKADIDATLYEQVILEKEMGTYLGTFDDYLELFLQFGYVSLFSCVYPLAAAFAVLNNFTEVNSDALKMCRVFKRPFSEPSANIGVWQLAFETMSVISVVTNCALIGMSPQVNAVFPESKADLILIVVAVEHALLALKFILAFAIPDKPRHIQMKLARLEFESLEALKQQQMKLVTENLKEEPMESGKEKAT
UniProt Q9NVG8: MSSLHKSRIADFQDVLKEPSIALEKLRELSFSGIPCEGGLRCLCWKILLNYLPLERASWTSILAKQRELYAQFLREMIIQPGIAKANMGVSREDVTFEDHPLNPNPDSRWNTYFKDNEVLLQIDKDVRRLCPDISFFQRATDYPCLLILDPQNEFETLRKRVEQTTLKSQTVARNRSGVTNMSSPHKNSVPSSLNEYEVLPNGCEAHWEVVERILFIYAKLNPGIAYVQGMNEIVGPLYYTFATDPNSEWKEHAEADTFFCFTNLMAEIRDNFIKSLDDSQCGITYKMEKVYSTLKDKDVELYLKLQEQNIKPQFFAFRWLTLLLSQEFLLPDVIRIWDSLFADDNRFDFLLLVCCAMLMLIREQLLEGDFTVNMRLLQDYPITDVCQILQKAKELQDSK
UniProt Q9NUQ2: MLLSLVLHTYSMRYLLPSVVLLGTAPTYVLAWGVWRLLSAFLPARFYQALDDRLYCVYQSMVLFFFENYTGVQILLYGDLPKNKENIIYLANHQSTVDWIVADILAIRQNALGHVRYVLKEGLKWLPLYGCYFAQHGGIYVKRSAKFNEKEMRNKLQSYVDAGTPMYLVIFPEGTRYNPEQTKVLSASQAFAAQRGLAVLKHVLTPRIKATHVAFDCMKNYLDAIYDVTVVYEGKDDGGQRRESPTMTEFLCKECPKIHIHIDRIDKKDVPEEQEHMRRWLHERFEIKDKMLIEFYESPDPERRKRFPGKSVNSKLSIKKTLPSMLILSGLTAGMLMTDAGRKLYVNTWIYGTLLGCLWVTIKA
UniProt Q9NWK9: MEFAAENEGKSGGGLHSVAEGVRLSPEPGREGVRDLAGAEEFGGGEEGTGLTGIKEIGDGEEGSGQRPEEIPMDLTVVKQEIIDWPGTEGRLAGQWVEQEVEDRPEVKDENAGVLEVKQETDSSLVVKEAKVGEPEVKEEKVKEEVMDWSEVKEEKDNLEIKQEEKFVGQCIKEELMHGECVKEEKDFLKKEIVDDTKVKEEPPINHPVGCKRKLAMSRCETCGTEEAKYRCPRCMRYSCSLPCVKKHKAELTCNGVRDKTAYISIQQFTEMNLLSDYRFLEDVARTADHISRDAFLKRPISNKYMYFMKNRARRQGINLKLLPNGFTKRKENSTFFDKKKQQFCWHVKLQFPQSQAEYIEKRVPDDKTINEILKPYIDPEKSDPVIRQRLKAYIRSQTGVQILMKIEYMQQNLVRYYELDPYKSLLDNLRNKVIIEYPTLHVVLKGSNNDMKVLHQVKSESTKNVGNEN
UniProt Q9NX55: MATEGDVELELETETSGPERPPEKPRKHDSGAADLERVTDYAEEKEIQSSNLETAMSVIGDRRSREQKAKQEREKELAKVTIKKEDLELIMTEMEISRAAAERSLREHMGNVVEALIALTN
UniProt Q9UBM7: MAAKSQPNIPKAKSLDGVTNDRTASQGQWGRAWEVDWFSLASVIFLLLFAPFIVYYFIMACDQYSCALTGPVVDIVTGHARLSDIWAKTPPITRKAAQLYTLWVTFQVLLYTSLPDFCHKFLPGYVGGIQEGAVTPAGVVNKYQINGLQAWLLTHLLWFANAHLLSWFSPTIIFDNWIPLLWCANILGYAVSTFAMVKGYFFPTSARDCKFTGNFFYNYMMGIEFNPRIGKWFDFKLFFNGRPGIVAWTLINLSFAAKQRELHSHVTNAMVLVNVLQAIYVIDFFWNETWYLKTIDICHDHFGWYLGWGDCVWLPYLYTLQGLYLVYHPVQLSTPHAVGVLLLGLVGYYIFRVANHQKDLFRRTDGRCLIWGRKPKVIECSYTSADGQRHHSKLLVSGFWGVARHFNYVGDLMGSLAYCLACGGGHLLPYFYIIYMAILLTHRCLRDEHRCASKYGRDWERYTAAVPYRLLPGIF
UniProt Q9NVT9: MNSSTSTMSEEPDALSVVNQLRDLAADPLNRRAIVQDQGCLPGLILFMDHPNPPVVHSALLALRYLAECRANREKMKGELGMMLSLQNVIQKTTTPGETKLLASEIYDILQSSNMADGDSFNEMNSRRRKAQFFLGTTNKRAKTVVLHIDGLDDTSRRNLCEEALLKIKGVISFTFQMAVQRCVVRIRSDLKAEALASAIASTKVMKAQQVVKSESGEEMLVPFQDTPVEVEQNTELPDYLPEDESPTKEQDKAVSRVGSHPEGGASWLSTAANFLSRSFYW
UniProt Q9NV88, whole entry: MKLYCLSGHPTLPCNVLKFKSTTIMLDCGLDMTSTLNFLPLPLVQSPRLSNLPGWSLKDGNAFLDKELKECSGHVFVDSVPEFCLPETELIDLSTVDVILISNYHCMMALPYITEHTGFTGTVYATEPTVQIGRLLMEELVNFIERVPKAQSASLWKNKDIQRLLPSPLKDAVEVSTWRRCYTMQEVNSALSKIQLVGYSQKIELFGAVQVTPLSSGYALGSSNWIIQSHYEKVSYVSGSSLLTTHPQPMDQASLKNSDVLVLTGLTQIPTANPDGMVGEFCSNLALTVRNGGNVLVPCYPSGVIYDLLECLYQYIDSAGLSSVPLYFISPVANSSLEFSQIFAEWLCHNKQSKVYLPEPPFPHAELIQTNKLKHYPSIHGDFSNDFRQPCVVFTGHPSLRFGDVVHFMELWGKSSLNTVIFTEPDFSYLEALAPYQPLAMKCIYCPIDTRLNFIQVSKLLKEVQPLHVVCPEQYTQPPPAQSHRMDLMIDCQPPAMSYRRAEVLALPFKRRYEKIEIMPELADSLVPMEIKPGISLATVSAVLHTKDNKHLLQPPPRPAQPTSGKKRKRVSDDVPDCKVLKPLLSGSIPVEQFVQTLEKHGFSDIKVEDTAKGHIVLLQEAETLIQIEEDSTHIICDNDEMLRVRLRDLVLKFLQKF
UniProt Q9P1Z2: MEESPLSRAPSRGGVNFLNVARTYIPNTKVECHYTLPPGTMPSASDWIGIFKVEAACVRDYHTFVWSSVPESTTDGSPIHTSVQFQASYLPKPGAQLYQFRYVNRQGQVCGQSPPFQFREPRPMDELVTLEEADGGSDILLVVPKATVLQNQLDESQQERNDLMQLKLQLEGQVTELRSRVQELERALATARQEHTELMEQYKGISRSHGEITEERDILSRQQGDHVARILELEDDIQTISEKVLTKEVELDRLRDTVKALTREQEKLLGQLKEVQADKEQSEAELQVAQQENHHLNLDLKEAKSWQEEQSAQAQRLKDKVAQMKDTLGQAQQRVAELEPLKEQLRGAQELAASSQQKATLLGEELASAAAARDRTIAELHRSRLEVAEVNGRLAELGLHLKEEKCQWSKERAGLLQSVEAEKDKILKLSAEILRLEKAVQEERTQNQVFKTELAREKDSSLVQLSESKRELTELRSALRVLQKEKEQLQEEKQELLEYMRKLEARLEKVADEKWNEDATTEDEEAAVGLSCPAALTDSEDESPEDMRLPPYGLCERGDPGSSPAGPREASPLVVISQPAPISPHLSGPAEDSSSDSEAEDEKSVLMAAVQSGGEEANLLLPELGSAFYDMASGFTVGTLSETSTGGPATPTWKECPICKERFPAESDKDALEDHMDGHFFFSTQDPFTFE
UniProt Q9UBQ7: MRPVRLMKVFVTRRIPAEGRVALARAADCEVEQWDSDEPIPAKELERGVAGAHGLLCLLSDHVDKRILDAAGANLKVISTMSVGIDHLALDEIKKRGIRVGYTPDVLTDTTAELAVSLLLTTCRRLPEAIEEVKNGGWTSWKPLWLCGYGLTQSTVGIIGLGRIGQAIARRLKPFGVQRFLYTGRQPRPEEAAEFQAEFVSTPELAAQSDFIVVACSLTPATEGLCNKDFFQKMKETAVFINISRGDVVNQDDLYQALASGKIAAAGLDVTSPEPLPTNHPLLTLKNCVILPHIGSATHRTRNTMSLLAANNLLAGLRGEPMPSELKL
UniProt Q9NVI1: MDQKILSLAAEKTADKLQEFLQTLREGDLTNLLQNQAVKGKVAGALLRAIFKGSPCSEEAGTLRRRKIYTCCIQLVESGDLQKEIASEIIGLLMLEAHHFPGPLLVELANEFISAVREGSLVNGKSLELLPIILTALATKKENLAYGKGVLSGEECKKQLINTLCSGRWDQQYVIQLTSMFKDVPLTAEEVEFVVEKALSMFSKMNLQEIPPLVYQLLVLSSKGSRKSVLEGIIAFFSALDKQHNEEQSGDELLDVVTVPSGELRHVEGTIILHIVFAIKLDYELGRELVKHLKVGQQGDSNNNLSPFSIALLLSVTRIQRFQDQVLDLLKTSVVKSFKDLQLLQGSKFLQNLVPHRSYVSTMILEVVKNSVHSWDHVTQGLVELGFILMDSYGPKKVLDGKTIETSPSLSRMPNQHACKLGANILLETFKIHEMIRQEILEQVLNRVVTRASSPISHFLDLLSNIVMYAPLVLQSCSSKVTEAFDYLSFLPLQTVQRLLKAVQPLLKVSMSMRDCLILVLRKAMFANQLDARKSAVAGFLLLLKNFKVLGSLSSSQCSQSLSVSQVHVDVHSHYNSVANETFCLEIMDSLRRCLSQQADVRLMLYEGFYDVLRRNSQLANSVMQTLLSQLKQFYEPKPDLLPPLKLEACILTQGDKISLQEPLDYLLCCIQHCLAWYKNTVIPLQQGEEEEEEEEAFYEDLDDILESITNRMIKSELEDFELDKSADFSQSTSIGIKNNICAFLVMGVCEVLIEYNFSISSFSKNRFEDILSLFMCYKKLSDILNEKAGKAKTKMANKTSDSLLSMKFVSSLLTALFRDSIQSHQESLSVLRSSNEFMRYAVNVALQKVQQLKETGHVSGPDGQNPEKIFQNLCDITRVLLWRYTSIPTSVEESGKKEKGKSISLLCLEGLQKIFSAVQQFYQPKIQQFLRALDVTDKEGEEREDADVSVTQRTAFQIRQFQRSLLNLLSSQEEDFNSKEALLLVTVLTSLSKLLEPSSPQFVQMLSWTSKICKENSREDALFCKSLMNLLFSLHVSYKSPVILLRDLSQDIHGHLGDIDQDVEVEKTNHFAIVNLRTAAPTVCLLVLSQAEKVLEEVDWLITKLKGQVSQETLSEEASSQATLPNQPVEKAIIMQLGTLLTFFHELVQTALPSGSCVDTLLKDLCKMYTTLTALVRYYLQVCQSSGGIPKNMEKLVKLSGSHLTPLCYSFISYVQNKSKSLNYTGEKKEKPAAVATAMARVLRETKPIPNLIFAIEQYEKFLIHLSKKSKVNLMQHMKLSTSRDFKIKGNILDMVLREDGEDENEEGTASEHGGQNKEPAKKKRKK
UniProt Q9NW13: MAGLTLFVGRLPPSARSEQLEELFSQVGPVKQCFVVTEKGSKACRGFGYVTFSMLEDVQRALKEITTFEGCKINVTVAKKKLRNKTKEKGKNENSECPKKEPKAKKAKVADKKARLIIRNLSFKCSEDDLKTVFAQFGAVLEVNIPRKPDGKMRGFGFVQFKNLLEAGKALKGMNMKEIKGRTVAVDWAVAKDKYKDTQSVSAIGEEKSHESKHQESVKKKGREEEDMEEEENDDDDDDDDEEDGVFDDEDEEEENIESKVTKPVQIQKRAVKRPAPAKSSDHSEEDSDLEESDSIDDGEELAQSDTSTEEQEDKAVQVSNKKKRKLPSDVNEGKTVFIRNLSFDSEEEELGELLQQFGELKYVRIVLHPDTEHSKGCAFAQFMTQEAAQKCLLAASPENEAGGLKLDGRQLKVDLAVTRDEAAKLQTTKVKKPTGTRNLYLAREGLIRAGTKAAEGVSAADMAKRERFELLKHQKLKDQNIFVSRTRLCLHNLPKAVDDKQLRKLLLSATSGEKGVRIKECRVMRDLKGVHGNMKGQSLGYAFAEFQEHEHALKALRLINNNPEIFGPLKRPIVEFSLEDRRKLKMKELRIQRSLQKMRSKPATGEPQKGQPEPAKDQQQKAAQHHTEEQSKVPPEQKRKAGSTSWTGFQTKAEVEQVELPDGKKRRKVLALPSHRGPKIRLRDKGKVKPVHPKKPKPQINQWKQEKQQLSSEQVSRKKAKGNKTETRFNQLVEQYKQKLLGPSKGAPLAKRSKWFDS

± gives the standard deviation of the averaged measurements. The entries are a selection whose mix differs from that of the whole data set. Most values lie at the level of the controls, where differences are scatter.

Compound in the first test: Nc1ncnc2c1ncn2[C@@H]1O[C@H](COP(=O)(O)OP(=O)(O)NP(=O)(O)O)[C@@H](O)[C@H]1O [adenylyl imidodiphosphate]
In words: NP40-soluble protein abundance relative to vehicle (solubility fold change) (ratio); higher = more soluble protein in presence of AMP-PNP. As to conditions: concentration: 0.1mM. The procedure, abridged:
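Each value is a fold change relative to the detergent-processed vehicle, calculated per replicate from vsn-normalised intensities. Jurkat crude lysate received eight concentrations (0.1 to 10 mM) for 10 min at room temperature and 3 min at 37 °C, then was solubilised in 0.8% NP40 with benzonase (60 min, 4 °C). The ultracentrifuged supernatant was TMT-labelled and run by LC-MS/MS in three independent experiments.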
Take UniProt Q9NW15 and related entries: the NP40-soluble protein abundance came out at 1.01 ± 0.022.

On to IARS2 (UniProt Q9NSE4), for which the NP40-soluble protein abundance was 0.99 ± 0.031.

For CCDC59 (UniProt Q9P031), the NP40-soluble protein abundance amounted to 0.9609 ± 0.0019.

Take FARSB (UniProt Q9NSD9): the NP40-soluble protein abundance worked out at 1.02 ± 0.024.

In the case of PAK1IP1 (UniProt Q9NWT1), the NP40-soluble protein abundance came out at 1.006 ± 0.0055.

As to UniProt Q9NZL4 and related entries, the NP40-soluble protein abundance is 0.982 ± 0.02.

For UniProt Q9NUP1, the NP40-soluble protein abundance was 1.02 ± 0.015.

Turning to GTSE1 (UniProt Q9NYZ3), the NP40-soluble protein abundance stood at 0.997 ± 0.036.

In the case of UniProt Q9NZT2 and related entries, the NP40-soluble protein abundance stood at 0.984 ± 0.016.

Take ATXN10 (UniProt Q9UBB4): the NP40-soluble protein abundance came out at 0.986 ± 0.026.

As for TBC1D13 (UniProt Q9NVG8), the NP40-soluble protein abundance stood at 0.999 ± 0.031.

For UniProt Q9NUM4 and related entries, the NP40-soluble protein abundance amounted to 1 ± 0.057.

As for “UniProt Q9NQ86-4|E9PBG3 and related entries”, the NP40-soluble protein abundance was 0.9516 ± 0.0068.

With MBD2 (UniProt Q9UBB5), the NP40-soluble protein abundance turned out to be 0.996 ± 0.049.

Take AGPAT5 (UniProt Q9NUQ2): the NP40-soluble protein abundance came out at 1 ± 0.02.

Consider UniProt Q9NWK9 and related entries, for which the NP40-soluble protein abundance was found to be 1.02 ± 0.024.

With UniProt Q9P1F3, the NP40-soluble protein abundance worked out at 0.965 ± 0.031.

Regarding UniProt Q9NX55, the NP40-soluble protein abundance is 1.012 ± 0.0078.

Consider UniProt Q9NWR8, for which the NP40-soluble protein abundance is 1.009 ± 0.0037.

For DIP2B (UniProt Q9P265), the NP40-soluble protein abundance came to 0.994 ± 0.022.

Take UniProt Q9NW75 and related entries: the NP40-soluble protein abundance is 0.998 ± 0.022.

For the target DHCR7 (UniProt Q9UBM7), the NP40-soluble protein abundance is 1.02 ± 0.021.

As to VPS18 (UniProt Q9P253), the NP40-soluble protein abundance came out at 1.03 ± 0.056.

For the target ARMC1 (UniProt Q9NVT9), the NP40-soluble protein abundance amounted to 0.992 ± 0.026.

Take UniProt Q9NXK8 and related entries: the NP40-soluble protein abundance was found to be 0.997 ± 0.013.

With UniProt Q9NRY2, the NP40-soluble protein abundance is 1.007 ± 0.0093.

Consider UniProt Q9NV88 and related entries, for which the NP40-soluble protein abundance was found to be 0.996 ± 0.043.

As for MDN1 (UniProt Q9NU22), the NP40-soluble protein abundance was found to be 1.02 ± 0.012.

For the target UniProt Q9P1Z2 and related entries, the NP40-soluble protein abundance was determined as 1.02 ± 0.029.

With GRHPR (UniProt Q9UBQ7), the NP40-soluble protein abundance worked out at 1.02 ± 0.042.

Regarding COPG2 (UniProt Q9UBF2), the NP40-soluble protein abundance was 1.02 ± 0.02.

For the target UniProt Q9NZ09 and related entries, the NP40-soluble protein abundance came out at 0.973 ± 0.012.

For UniProt Q9NRY4, the NP40-soluble protein abundance turned out to be 1.03 ± 0.035.

In the case of FANCI (UniProt Q9NVI1), the NP40-soluble protein abundance is 0.993 ± 0.019.

Regarding UniProt Q9P0I2, the NP40-soluble protein abundance is 0.97 ± 0.023.

UniProt Q9NSY1: the NP40-soluble protein abundance was found to be 1.03 ± 0.017.

For RBM28 (UniProt Q9NW13), the NP40-soluble protein abundance was 1 ± 0.023.

UniProt Q9NRG7-2|Q9NRG7: the NP40-soluble protein abundance is 0.946 ± 0.054.

Still in this test, the particulars now being: concentration: 0.5mM.
Consider UniProt Q9NW15 and related entries, for which the NP40-soluble protein abundance worked out at 1 ± 0.014.

IARS2 (UniProt Q9NSE4): the NP40-soluble protein abundance worked out at 0.973 ± 0.077.

With CCDC59 (UniProt Q9P031), the NP40-soluble protein abundance was found to be 0.979 ± 0.025.

Consider FARSB (UniProt Q9NSD9), for which the NP40-soluble protein abundance came to 0.984 ± 0.057.

Turning to PAK1IP1 (UniProt Q9NWT1), the NP40-soluble protein abundance was 1.01 ± 0.045.

On to UniProt Q9NZL4 and related entries, for which the NP40-soluble protein abundance turned out to be 0.95 ± 0.052.

Take UniProt Q9NUP1: the NP40-soluble protein abundance was determined as 1.02 ± 0.026.

Take GTSE1 (UniProt Q9NYZ3): the NP40-soluble protein abundance amounted to 1.01 ± 0.038.

UniProt Q9NZT2 and related entries: the NP40-soluble protein abundance was 0.993 ± 0.037.

In the case of ATXN10 (UniProt Q9UBB4), the NP40-soluble protein abundance worked out at 1.02 ± 0.032.

As to TBC1D13 (UniProt Q9NVG8), the NP40-soluble protein abundance amounted to 0.958 ± 0.075.

Take UniProt Q9NUM4 and related entries: the NP40-soluble protein abundance came out at 0.983 ± 0.051.

Take “UniProt Q9NQ86-4|E9PBG3 and related entries”: the NP40-soluble protein abundance came out at 0.972 ± 0.043.

As for MBD2 (UniProt Q9UBB5), the NP40-soluble protein abundance worked out at 1.01 ± 0.035.

For the target AGPAT5 (UniProt Q9NUQ2), the NP40-soluble protein abundance came out at 0.978 ± 0.067.

UniProt Q9NWK9 and related entries: the NP40-soluble protein abundance came to 1 ± 0.024.

On to UniProt Q9P1F3, for which the NP40-soluble protein abundance came to 0.955 ± 0.059.

On to UniProt Q9NX55, for which the NP40-soluble protein abundance worked out at 1.01 ± 0.028.

For the target UniProt Q9NWR8, the NP40-soluble protein abundance came to 0.9883 ± 0.0076.

For DIP2B (UniProt Q9P265), the NP40-soluble protein abundance came to 0.971 ± 0.065.

Regarding UniProt Q9NW75 and related entries, the NP40-soluble protein abundance amounted to 1.05 ± 0.043.

In the case of DHCR7 (UniProt Q9UBM7), the NP40-soluble protein abundance was 1 ± 0.035.

For the target VPS18 (UniProt Q9P253), the NP40-soluble protein abundance turned out to be 0.998 ± 0.036.

For the target ARMC1 (UniProt Q9NVT9), the NP40-soluble protein abundance amounted to 1.04 ± 0.063.

As to UniProt Q9NXK8 and related entries, the NP40-soluble protein abundance was found to be 0.984 ± 0.0029.

As to UniProt Q9NRY2, the NP40-soluble protein abundance was found to be 1.017 ± 0.0097.

Regarding UniProt Q9NV88 and related entries, the NP40-soluble protein abundance came to 1.01 ± 0.028.

On to MDN1 (UniProt Q9NU22), for which the NP40-soluble protein abundance was determined as 0.966 ± 0.018.

For UniProt Q9P1Z2 and related entries, the NP40-soluble protein abundance is 0.982 ± 0.044.

As to GRHPR (UniProt Q9UBQ7), the NP40-soluble protein abundance was found to be 1 ± 0.049.

Turning to COPG2 (UniProt Q9UBF2), the NP40-soluble protein abundance worked out at 1.03 ± 0.024.

As for UniProt Q9NZ09 and related entries, the NP40-soluble protein abundance is 0.986 ± 0.044.

For UniProt Q9NRY4, the NP40-soluble protein abundance turned out to be 0.982 ± 0.049.

Consider FANCI (UniProt Q9NVI1), for which the NP40-soluble protein abundance came to 1.02 ± 0.018.

UniProt Q9P0I2: the NP40-soluble protein abundance worked out at 0.981 ± 0.01.

In the case of UniProt Q9NSY1, the NP40-soluble protein abundance came to 1.01 ± 0.021.

As to RBM28 (UniProt Q9NW13), the NP40-soluble protein abundance was determined as 1.03 ± 0.049.

With UniProt Q9NRG7-2|Q9NRG7, the NP40-soluble protein abundance amounted to 0.91 ± 0.089.
